This is one part of the list. Repeats are few or missing, and single values can be far off.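 Imaging used 1,536-well plates; nuclei positive for cleaved PARP by antibody were divided by total DNA-stained nuclei to yield the apoptosis fraction. Doses for screening kept most cells viable, and cell lines differ markedly in resting and induced cleaved-PARP levels.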

The source of these data is the supplement of paper PMC4604168 (melanoma cell lines).

The test deals with WM451Lu. Briefly: cleaved PARP positive nuclei fraction relative to DMSO control; melanoma cells; higher = more apoptosis. The following applies: library dose: low library concentration; 72 h.
With `CC(C)C[C@H](NC(=O)[C@H](Cc1ccccc1)NC(=O)c1cnccn1)B(O)O` [Bortezomib] + Cc1cc([N+](=O)[O-])ccc1NS(=O)(=O)c1cc(Cl)ccc1Cl [FH535] (first compound 0.001 µM, partner dose 1 µM), the “cleaved PARP positive nuclei fraction” value amounted to 61.5%.

Regarding `CC(C)C[C@H](NC(=O)[C@H](Cc1ccccc1)NC(=O)c1cnccn1)B(O)O` [Bortezomib] + O=C(CCCCCCC(=O)Nc1ccccc1)NO [vorinostat] (first compound 0.001 µM, partner dose 0.08 µM), the “cleaved PARP positive nuclei fraction” value was 154%.

As for `Nc1ncn([C@H]2C[C@H](O)[C@@H](CO)O2)c(=O)n1` [decitabine] + COc1ccc2c(c1)CCC1C2CCC2(C)C(NCCCCCCN3C(=O)C=CC3=O)CCC12 [U73122] (first compound 0.1 µM, partner dose 0.4 µM), the “cleaved PARP positive nuclei fraction” value stood at 52.3%.
